Data on 4 molecules can be found in PMC5667882.

Protein sequences, listed by entry. Tags and fused reporters are not part of them.
UniProt Q62053: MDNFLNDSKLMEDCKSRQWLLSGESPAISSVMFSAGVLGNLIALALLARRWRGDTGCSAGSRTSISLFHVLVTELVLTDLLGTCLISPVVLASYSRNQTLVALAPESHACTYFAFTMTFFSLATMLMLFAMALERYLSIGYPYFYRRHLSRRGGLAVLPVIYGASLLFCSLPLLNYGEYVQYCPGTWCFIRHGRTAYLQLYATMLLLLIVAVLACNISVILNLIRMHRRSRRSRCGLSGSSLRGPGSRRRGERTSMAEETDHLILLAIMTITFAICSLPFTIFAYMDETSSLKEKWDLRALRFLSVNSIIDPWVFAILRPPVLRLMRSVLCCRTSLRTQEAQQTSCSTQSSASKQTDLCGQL
UniProt P97926: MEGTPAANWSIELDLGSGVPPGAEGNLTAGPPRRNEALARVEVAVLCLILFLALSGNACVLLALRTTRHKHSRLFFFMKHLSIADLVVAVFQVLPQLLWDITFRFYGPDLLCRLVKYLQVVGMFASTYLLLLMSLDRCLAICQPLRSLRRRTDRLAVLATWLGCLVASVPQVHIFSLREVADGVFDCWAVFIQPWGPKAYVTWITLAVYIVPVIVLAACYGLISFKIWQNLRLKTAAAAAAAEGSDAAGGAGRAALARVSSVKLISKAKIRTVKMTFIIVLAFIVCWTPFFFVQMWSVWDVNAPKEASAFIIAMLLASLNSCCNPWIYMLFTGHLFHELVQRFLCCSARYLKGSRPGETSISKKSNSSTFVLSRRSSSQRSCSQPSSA

Assay [1] deals with T1, CTR-fused YFP (CTR-YFP) (mouse (ORF amplified from OV3121 cells)) (UniProt Q60755).
T1 sequence: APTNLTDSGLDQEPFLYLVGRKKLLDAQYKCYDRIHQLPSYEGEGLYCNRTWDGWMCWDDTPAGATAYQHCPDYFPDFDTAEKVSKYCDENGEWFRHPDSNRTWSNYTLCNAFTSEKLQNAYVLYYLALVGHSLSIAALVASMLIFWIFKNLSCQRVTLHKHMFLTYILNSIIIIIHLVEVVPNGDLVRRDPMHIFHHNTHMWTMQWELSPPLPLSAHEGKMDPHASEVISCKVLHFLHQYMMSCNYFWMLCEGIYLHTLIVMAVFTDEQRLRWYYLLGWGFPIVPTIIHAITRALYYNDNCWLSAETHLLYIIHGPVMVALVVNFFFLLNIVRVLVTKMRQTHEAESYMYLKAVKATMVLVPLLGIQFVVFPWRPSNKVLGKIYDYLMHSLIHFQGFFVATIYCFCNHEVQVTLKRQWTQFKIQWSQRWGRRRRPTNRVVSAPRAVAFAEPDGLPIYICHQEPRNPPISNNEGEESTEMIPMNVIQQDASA
As to the kind of experiment: FRET or BRET; FRET by confocal laser microscopy in living HEK293MSR cells transfected with 1 ug of each CFP- and YFP-fusion vector, imaged the following day.

For assay [2], the target named is T2, calcitonin (CT) receptor (CTR) (mouse (endogenous in OV3121)) (UniProt Q60755).
T2 sequence: T1 sequence
As to the kind of experiment: co-IP; 30 ug OV3121 membrane proteins co-immunoprecipitated with 1 ug anti-EP2 or anti-CTR antibody, Western blotting with anti-CTR or anti-EP2 antibody, respectively; sample without Co-IP as negative control. For orientation: Immunoblotting shows a protein as a band on a membrane.

Assay [3] addresses prostaglandin E2 (PGE2) receptor 2 (EP2) (mouse (endogenous in OV3121)) (UniProt Q62053). The assay is described as above.
The target of assay [4] is EP2-fused CFP (EP2-CFP) (mouse (ORF amplified from OV3121 cells)) (UniProt Q62053). As to the kind of experiment: FRET or BRET; FRET by confocal laser microscopy in living HEK293MSR cells transfected with 1 ug of each CFP- and YFP-fusion vector, imaged the following day. On the technique in general: In BRET a luciferase serves as donor, and the signal depends on an acceptor being close.

Results are given in words; binding and its absence hold for the method and conditions named. In cells and extracts the contact can be indirect. Some entries that bind do so weakly or less than the wild type. For some of these results: Sequences can lack the tags named with a protein.

Regarding “OXTR-fused CFP (OXTR-CFP) (from UniProt P97926 1-388) (receptor)”, the binding result in assay [1] is listed as “no binding”.

Turning to “prostaglandin E2 (PGE2) receptor 2 (EP2) (from UniProt Q62053 1-362)”, the binding entry in assay [2] is listed as “binds”.

B1: calcitonin (CT) receptor (CTR) (receptor, UniProt Q60755 42-533)
chain: T1 sequence
Take B1: the binding result in assay [3] is given as “binds”.

B2: CTR-fused YFP (CTR-YFP) (receptor, UniProt Q60755 42-533)
chain: T1 sequence
Regarding B2, the binding result in assay [4] is reported as “binds”.
